Data: PubChem BioAssay AID662 (National Center for Advancing Translational Sciences (NCATS), 2007)
The other results are listed elsewhere or left out. The main result of the screen is listed elsewhere. These columns were measured beside it and carry no call. Compounds called inactive in the main read-out are mostly missing here. The note in brackets gives the kind of curve behind each potency; many fits are weak.

Test: Cell signaling CRE-BLA (Fsk stim)
Conditions: CHO CRE-bla reporter (cAMP response element driving beta-lactamase), forskolin EC10, beta-lactamase ratio; measured here: 460 nm blue channel
How it was run: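 Cells were plated overnight at 37 °C, exposed to compound titrations plus EC10 NKH 477 for 3 h, then given CCF4 dye for 2 h at room temperature. Blue/green (460/530 nm) ratio was converted to %Activity and AC50 values calculated.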

Question: Which AC50 does the source give for `CCSc1nnc(Cc2cc(=O)[nH]c(=O)[nH]2)n1-c1cc(C)ccc1C` here?
Answer: The AC50 was 0.00631 µM [falling, full curve, poor fit].

Question: Which AC50 does the source give for `c1ccc(-c2ccccn2)nc1` here?
Answer: Its AC50 is 12.6 µM [falling, single point].

Question: With `CSCCC(NC(=O)CCN1C(=O)c2ccccc2C1=O)C(=O)O` (stereo unspecified) as the compound, how does the AC50 read?
Answer: The AC50 was 0.0631 µM [falling, full curve].

Question: With `Cc1ccc(NC(=O)N2CCC(c3nc4c(nnn4Cc4cccc(Cl)c4)c(=O)[nH]3)CC2)cc1` as the compound, how does the AC50 read?
Answer: The AC50 was 12.6 µM [rising, partial curve].

Question: For `CCOC(=O)Cn1c(=O)oc2cc(S(=O)(=O)Nc3cccc(C)c3)ccc21`, which AC50 is on record?
Answer: The AC50 was 7.94 µM [rising, partial curve].

Question: For `CCCCCn1c(Sc2nc3ccccc3s2)nc2c1c(=O)[nH]c(=O)n2C`, which AC50 is on record?
Answer: Its AC50 is 12.6 µM [rising, partial curve].

Question: Which AC50 does the source give for `Cc1cc2c(c(=O)n1Cc1cccnc1)C(Cc1ccccc1)C(C#N)=C(N)O2` (stereo unspecified) here?
Answer: The AC50 was 31.6 µM [falling, single point].

Question: For `COc1ccc(/C(O)=C2/C(=O)C(=O)N(CCN3CCOCC3)C2c2ccc(C)cc2)cc1` (stereo unspecified), which AC50 is on record?
Answer: Its AC50 is 0.00398 µM [falling, full curve, poor fit].

Question: Which AC50 does the source give for `COC(=O)c1ccccc1NC(=O)CN1CCC(C(=O)c2ccc3c(c2)OCCO3)CC1` here?
Answer: The AC50 was 25.1 µM [falling, single point].

Question: For `COc1ccc(N(CC(=O)NC2CCCC2)C(=O)Cn2nnc(-c3ccc(F)cc3)n2)cc1OC`, which AC50 is on record?
Answer: Its AC50 is 25.1 µM [falling, single point].

Question: With `Cn1c(=O)c(NCCO)c2c3c(cccc31)C(=O)c1ccccc1-2` as the compound, how does the AC50 read?
Answer: Its AC50 is 10 µM [rising, partial curve].

Question: With `CC(C)C(NC(=O)C1CCCCC1)C(=O)Nc1ccc2c(c1)OCCO2` (stereo unspecified) as the compound, how does the AC50 read?
Answer: The AC50 was 15.8 µM [falling, partial curve, poor fit].

Question: With `C=CCn1c(N)c(C(=O)OCCC)c2nc3ccccc3nc21` as the compound, how does the AC50 read?
Answer: The AC50 was 10 µM [rising, partial curve].

Question: For `O=S(=O)(NCCCCCNS(=O)(=O)c1ccc(F)cc1)c1ccc(F)cc1`, which AC50 is on record?
Answer: Its AC50 is 5.01 µM [falling, partial curve].

Question: For `CCn1c(N)c(C(=O)NCc2ccco2)sc1=S`, which AC50 is on record?
Answer: The AC50 was 0.00398 µM [falling, full curve, poor fit].

Question: With `N#CC1=C(N)Oc2c(ccc3cccnc23)C1c1cccnc1` (stereo unspecified) as the compound, how does the AC50 read?
Answer: Its AC50 is 2 µM [rising, single point].

Question: Which AC50 does the source give for `O=C(CSc1nccc(=O)[nH]1)N1CCCc2ccccc21` here?
Answer: The AC50 was 0.794 µM [rising, full curve, poor fit].

Question: Which AC50 does the source give for `O=P(c1cccs1)(c1cccs1)c1cccs1` here?
Answer: The AC50 was 0.631 µM [falling, full curve].

Question: With `O=C(O)c1cc2cc(Cl)cc(Cl)c2oc1=O` as the compound, how does the AC50 read?
Answer: The AC50 was 5.01 µM [falling, full curve].

Question: With `CN(c1ccccc1)c1nc2ccsc2c(=O)s1` as the compound, how does the AC50 read?
Answer: Its AC50 is 0.1 µM [falling, full curve, poor fit].

Question: Which AC50 does the source give for `COc1ccccc1NC(=O)c1oc2ccccc2c1NC(=O)c1cc(OC)c(OC)c(OC)c1` here?
Answer: The AC50 was 0.794 µM [rising, full curve].

Question: Which AC50 does the source give for `Cn1cc(C(=O)NCCc2ccccc2)c(=O)c2cc(S(=O)(=O)N3CCOCC3)ccc21` here?
Answer: The AC50 was 25.1 µM [rising, single point].

Question: With `COc1ccc(Oc2c(C)oc3cc(OC(=O)N4CCOCC4)ccc3c2=O)cc1` as the compound, how does the AC50 read?
Answer: Its AC50 is 3.98 µM [falling, single point].

Question: With `O=C(NCc1ccco1)c1cc2nc(-c3ccc4c(c3)OCO4)cc(C(F)(F)F)n2n1` as the compound, how does the AC50 read?
Answer: The AC50 was 15.8 µM [rising, partial curve].

Question: Which AC50 does the source give for `CCc1ccc2c(-c3cccc(Cl)c3)nc(=O)n(CC)c2n1` here?
Answer: Its AC50 is 0.794 µM [rising, full curve].

Question: Which AC50 does the source give for `O=C(CNS(=O)(=O)c1ccc(Br)s1)NCC1COc2ccccc2O1` (stereo unspecified) here?
Answer: The AC50 was 0.316 µM [falling, full curve].

Question: With `CCc1ccc2[nH]c(=O)c(CN(Cc3ccc4c(c3)OCO4)C(=O)c3ccco3)cc2c1` as the compound, how does the AC50 read?
Answer: The AC50 was 10 µM [rising, partial curve].

Question: With `C=CCNc1nc(Nc2ccc(OC)cc2OC)nc(OCC)n1` as the compound, how does the AC50 read?
Answer: The AC50 was 1 µM [rising, full curve].

Question: Which AC50 does the source give for `Cc1nc(SCc2cccc(F)c2)[nH]c(=O)c1C#N` here?
Answer: The AC50 was 1.26 µM [falling, partial curve].

Question: With `CCSc1nc2c(c(=O)[nH]c(=O)n2C)n1CC(O)COc1ccccc1C` (stereo unspecified) as the compound, how does the AC50 read?
Answer: Its AC50 is 10 µM [rising, partial curve].

Question: For `Cc1cc(C)c(NC(=O)C[C@H](CC(=O)O)c2cccc3ccccc23)c(C(=O)N2CCC3(CCCC3)CC2)c1`, which AC50 is on record?
Answer: The AC50 was 12.6 µM [falling, single point].

Question: For `Cc1cc(C(=O)CN2C(=O)NC(C)(c3cccc(Br)c3)C2=O)c(C)n1Cc1ccco1` (stereo unspecified), which AC50 is on record?
Answer: The AC50 was 10 µM [falling, partial curve].

Question: With `CN(C)c1ncc2nc(-c3cccs3)c(=O)n(-c3ccccc3)c2n1` as the compound, how does the AC50 read?
Answer: Its AC50 is 15.8 µM [rising, partial curve].

Question: Which AC50 does the source give for `COC(=O)c1ccc(CSc2nnc(NCc3ccccc3)s2)o1` here?
Answer: The AC50 was 3.98 µM [falling, partial curve].

Question: For `O=C(c1n[nH]c(=O)c2ccccc12)N1CCN(C2c3ccccc3-c3ccccc32)CC1`, which AC50 is on record?
Answer: Its AC50 is 0.00794 µM [falling, full curve, poor fit].

Question: Which AC50 does the source give for `COc1ccc(-n2c(Cc3cccn3C)nnc2SCC(=O)Nc2ccc(C)cc2C)cc1` here?
Answer: The AC50 was 5.01 µM [falling, partial curve].

Question: For `CN(c1ccccc1)c1nc(N2CCCC2)nc(-n2ccnc2)n1`, which AC50 is on record?
Answer: Its AC50 is 15.8 µM [rising, partial curve].

Question: With `Cn1nc(-c2ccc(N3CCOCC3)c(NS(=O)(=O)c3ccccc3)c2)c2ccccc2c1=O` as the compound, how does the AC50 read?
Answer: The AC50 was 1.58 µM [rising, full curve].

Question: For `O=C(Nc1ncnc2c1ncn2C1OC(COC(=O)c2ccccc2)C(F)C1O)c1ccccc1` (stereo unspecified), which AC50 is on record?
Answer: The AC50 was 0.00794 µM [rising, full curve, poor fit].

Question: Which AC50 does the source give for `CC(NC(=O)c1cccc(N2CCCC2=O)c1)c1ccc2c(c1)OCCO2` (stereo unspecified) here?
Answer: Its AC50 is 25.1 µM [falling, single point].

Question: For `CC(C)C(=O)N(c1ccc2oc(=O)sc2c1)S(=O)(=O)c1cccs1`, which AC50 is on record?
Answer: Its AC50 is 3.16 µM [rising, single point].

Question: With `O=C(NC1CCCc2ccccc21)C1CCN(S(=O)(=O)c2cnc[nH]2)CC1` (stereo unspecified) as the compound, how does the AC50 read?
Answer: The AC50 was 0.00316 µM [falling, full curve, poor fit].

Question: Which AC50 does the source give for `O=C(c1ccc(C(=O)N2CCOCC2)nc1)N1CCOCC1` here?
Answer: Its AC50 is 12.6 µM [rising, single point].

Question: With `CCn1nnc(NC(=O)CSc2ccc(Cl)cc2)n1` as the compound, how does the AC50 read?
Answer: Its AC50 is 0.794 µM [rising, full curve, poor fit].

Question: Which AC50 does the source give for `COc1ccc(-c2cc(C(=O)N(C)Cc3ccccc3)no2)cc1OC` here?
Answer: The AC50 was 10 µM [rising, partial curve].

Question: For `Cc1ccc2nc(N3CCN(Cc4nnnn4Cc4ccccc4)CC3)c(C#N)cc2c1`, which AC50 is on record?
Answer: Its AC50 is 12.6 µM [rising, partial curve].

Question: Which AC50 does the source give for `Cc1ccc(NC(=O)c2cccc(N(C)C)c2)cc1NC(=O)c1ccc(O)cc1` here?
Answer: The AC50 was 10 µM [falling, partial curve, poor fit].

Question: For `CCOC(=O)c1[nH]c2ccc(F)cc2c1NC(=O)CN1CCN(C/C=C/c2ccccc2)CC1`, which AC50 is on record?
Answer: The AC50 was 12.6 µM [rising, partial curve].

Question: Which AC50 does the source give for `O=C(NC1CC2CCC1C2)C1CCN(S(=O)(=O)c2ccc(-c3nn[nH]n3)cc2)CC1` (stereo unspecified) here?
Answer: The AC50 was 3.98 µM [falling, single point].

Question: With `O=C1CC(c2nc3ccccc3[nH]2)CN1c1cccc(C(F)(F)F)c1` (stereo unspecified) as the compound, how does the AC50 read?
Answer: Its AC50 is 15.8 µM [rising, partial curve].

Question: For `COc1cc(NC(=O)CSc2nnc3n2C(C)(C)Cc2ccccc2-3)cc(OC)c1`, which AC50 is on record?
Answer: Its AC50 is 31.6 µM [falling, single point].

Question: For `Nc1c2c(nc3ccccc13)CCCC2`, which AC50 is on record?
Answer: Its AC50 is 15.8 µM [rising, partial curve, poor fit].

Question: Which AC50 does the source give for `C=CCn1c(-c2cc(OC)c(OC)c(OC)c2)n[nH]c1=S` here?
Answer: The AC50 was 10 µM [rising, single point].

Question: Which AC50 does the source give for `O=C(NCc1ccccn1)Nc1ccc(Cl)c(Cl)c1` here?
Answer: The AC50 was 3.16 µM [rising, single point].

Question: With `CCCNc1nc2c(c(=O)n(C)c(=O)n2C)n1Cc1cccc(C)c1` as the compound, how does the AC50 read?
Answer: The AC50 was 25.1 µM [rising, single point].

Question: With `COc1ncc2nc(-c3ccc(Cl)cc3)c(=O)n(C)c2n1` as the compound, how does the AC50 read?
Answer: The AC50 was 20 µM [rising, single point].

Question: Which AC50 does the source give for `O=C1OC(Nc2ccc3c(c2)OCO3)c2ccccc21` (stereo unspecified) here?
Answer: Its AC50 is 10 µM [falling, single point].

Question: For `CN(C)C(=O)c1ccc(-c2ccc3ncnc(N(C)Cc4ccco4)c3c2)cc1`, which AC50 is on record?
Answer: The AC50 was 6.31 µM [rising, full curve, poor fit].

Question: With `CCCCCn1c(=NC(=O)c2ccco2)c(C(=O)OCC)cc2c(=O)n3ccccc3nc21` as the compound, how does the AC50 read?
Answer: The AC50 was 15.8 µM [rising, partial curve].

Question: For `COc1ccc(Cn2c(C3CC3)nc3ccc(NC(=O)C4CC4)cc3c2=O)cc1`, which AC50 is on record?
Answer: The AC50 was 25.1 µM [rising, single point].

Question: For `Cc1ccc(NC(=O)N2CCCC2C(=O)NCCC2=CCCCC2)cc1` (stereo unspecified), which AC50 is on record?
Answer: Its AC50 is 3.16 µM [falling, full curve].

Question: With `CN(C)c1cccc2c(S(=O)(=O)Nc3ccccn3)cccc12` as the compound, how does the AC50 read?
Answer: The AC50 was 12.6 µM [rising, single point].

Question: For `C1=C(CN2CCOCC2)COc2c1cccc2OC[C@@H]1CNCCO1`, which AC50 is on record?
Answer: Its AC50 is 25.1 µM [falling, single point].

Question: Which AC50 does the source give for `C/C(NC(=O)c1ccccc1)=C1/C(=O)CC2C1C2(C)C` (stereo unspecified) here?
Answer: The AC50 was 0.316 µM [rising, partial curve].

Question: For `COc1cccc(C2NC(=O)NC(C)=C2C(=O)Nc2cc(OC)ccc2OC)c1` (stereo unspecified), which AC50 is on record?
Answer: Its AC50 is 10 µM [rising, single point].

Question: Which AC50 does the source give for `COCCn1c(-c2ccccc2)nc2oc3ccccc3c(=O)c2c1=O` here?
Answer: Its AC50 is 10 µM [rising, partial curve].
